From paper PMC6907854
No constants are given. Whether binding was seen depends on the method and setting. Some results given as binding are weak or reduced against the parent protein; the word gives no strength.

Amino acid sequences for entries named in this document (tags omitted).
UniProt P25454: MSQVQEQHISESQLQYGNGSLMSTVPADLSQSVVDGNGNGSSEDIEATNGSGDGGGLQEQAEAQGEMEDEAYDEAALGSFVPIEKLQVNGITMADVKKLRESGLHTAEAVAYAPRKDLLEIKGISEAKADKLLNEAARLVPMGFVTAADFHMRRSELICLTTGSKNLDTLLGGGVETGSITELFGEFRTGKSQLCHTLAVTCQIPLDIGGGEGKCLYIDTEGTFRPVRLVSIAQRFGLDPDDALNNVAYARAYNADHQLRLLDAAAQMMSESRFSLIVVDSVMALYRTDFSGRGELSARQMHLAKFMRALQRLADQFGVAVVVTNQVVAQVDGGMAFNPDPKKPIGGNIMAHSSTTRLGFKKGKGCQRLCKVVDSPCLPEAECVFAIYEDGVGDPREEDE

Legend:
Dmc1 (S. cerevisiae) = Dmc1 (S. cerevisiae) (UniProt P25453); experiment: two-hybrid; meiotic two-hybrid in SK-1 diploids; lexA DNA-binding domain fusions and Gal4 activation domain fusions with a lex-op::lacZ reporter; β-galactosidase assays 6 h and 18 h after induction of sporulation; done in MEI5+ and mei5 backgrounds (equivalent Rad51-Dmc1 signal in both)
Rad51 (S. cerevisiae) = Rad51 (S. cerevisiae) (UniProt P25454); experiment: as above

binding (Dmc1 (S. cerevisiae)): binds
binding (Rad51 (S. cerevisiae)): binds weakly
B1: Dmc1 (protein, UniProt P25453 1-334)
chain: MSVTGTEIDSDTAKNILSVDELQNYGINASDLQKLKSGGIYTVNTVLSTTRRHLCKIKGLSEVKVEKIKEAAGKIIQVGFIPATVQLDIRQRVYSLSTGSKQLDSILGGGIMTMSITEVFGEFRCGKTQMSHTLCVTTQLPREMGGGEGKVAYIDTEGTFRPERIKQIAEGYELDPESCLANVSYARALNSEHQMELVEQLGEELSSGDYRLIVVDSIMANFRVDYCGRGELSERQQKLNQHLFKLNRLAEEFNVAVFLTNQVQSDPGASALFASADGRKPIGGHVLAHASATRILLRKGRGDERVAKLQDSPDMPEKECVYVIGEKGITDSSD
